Source: patent US10092000B2, “Structure, synthesis, and applications for oligo phenylene ethynylenes (OPEs)” (STC.UNM, priority 2010, dated 2018)
At least one structure is not confirmed: it was looked up by name or label, or the drawing left a doubt.

Assay: Absorption and fluorescence spectroscopy
Assay type: physicochemical
Details: in water
Experimental: Photophysical study. For the absorption and fluorescence spectroscopy, we prepared a stock solution with concentration of 1 mM oligomer and 10% v/v solution of DMSO in H2O. 30 μL of the sonicated suspension of each EO-OPE-1 was diluted into 3 mL solution in a quartz cuvette to give a concentration of 10 μM. Absorption and fluorescence were performed on plate reader (SpectroMax M-5 microplate reader, Molecular Devices) at 24° C. Transient absorption spectra were recorded for EO-OPE-1 samples in both methanol and water. Transient absorption spectra were collected using laser systems that are described elsewhere 1, 2. The optical density was adjusted to 0.7 at the excitation wavelength (355 nm) with the laser energy being 6-7 mJ. Solutions were purged with argon for […] before making transient absorption spectroscopy measurements.

In the case of `C[N+](C)(C)CCOc1ccc(C#Cc2ccc(C#Cc3ccc(OCC[N+](C)(C)C)cc3)cc2)cc1.[I-].[I-]` [EO-OPE-1 (C2, A)], the “Molar extinction coefficient(ε)§” value is reported as 5.32 × 104.
For `C[N+](C)(C)CCCOc1ccc(C#Cc2ccc(C#Cc3ccc(OCCC[N+](C)(C)C)cc3)cc2)cc1.[I-].[I-]` [EO-OPE-1 (C3, A)], the “Molar extinction coefficient(ε)§” value was 5.58 × 104.
For `O=S(=O)([O-])CCCOc1ccc(C#Cc2ccc(C#Cc3ccc(OCCCS(=O)(=O)[O-])cc3)cc2)cc1.[Na+].[Na+]` [EO-OPE-1 (C3, S)], the “Molar extinction coefficient(ε)§” value was 2.23 × 104.
In the case of `C[N+](C)(C)CCCOc1ccc(C#Cc2ccc(C#Cc3ccc(OCCC[N+](C)(C)C)cc3)s2)cc1.[I-].[I-]` [EO-OPE-1 (Th, C3, A)], the “Molar extinction coefficient(ε)§” value is reported as 4.77 × 104.
